Laboratory results reported in EP4834888A1, “CATIONIC LIPID COMPRISING NITROGEN-CONTAINING HETEROCYCLE AND GLYCINE” (dated 2026).
Structures were worked out from names or drawings and are uncertain.

Test system: 293T cells
Experiment: In vitro transfection efficiency, luciferase bioluminescence (Fluc-mRNA)
Settings: for transfection effects between two molar ratios: L-15 with L-49, L-27 with L-50, 35:16:46.5:2.5 versus 50:10:38:1.5
Description: In order to investigate the mRNA transfection efficiency at the cellular level of each group of LNP-mRNA pharmaceutical compositions prepared in Example 47.1 of the present application, luciferase bioluminescence was used for testing. The LNP-mRNA pharmaceutical composition was dissolved in medium to prepare the required dose. 293T cells were used as the cell model, and cell suspensions of 100 µL/well were inoculated in a black-edged, clear-bottomed 96-well plate at a density of 6000 cells/well. After inoculation was completed, the cells were cultured in a cell culture incubator for 24 hours, and then the cells were dosed with 0.2 µg mRNA per well, while the blank control group was added with the corresponding dose of free Fluc-mRNA. After 24 hours of transfection, the old medium was replaced with fresh medium containing D-fluorescein sodium substrate (1.5 mg/mL). After 5 min of incubation, bioluminescence was detected using a microplate reader. The stronger the fluorescence, the more Fluc-mRNA is transported into the cytoplasm and translated the corresponding fluorescent protein. The results are shown in Table 2; wherein, the relative value of fluorescence intensity is the ratio of the fluorescence intensity of each group to the fluorescence intensity of the control group. […] The relative fluorescence values of the experimental groups L-1, L-3, L-15, L-16, L-19, L-26, L-27, L-28, L-30, L-32, and L-36 are higher. Meanwhile, there were differences in fluorescence intensity among the various experimental groups, which is probably due to the following variations in the cationic lipids: the type and/or number of degradable linking groups, and/or the type of hydrophobic hydrocarbon tail chain, and/or the degree of saturation of the hydrophobic hydrocarbon tail chain, and/or the carbon chain length between the linking group and the tertiary amine, and/or the number of ionizable tertiary amines. […]

## CCCCC#CCCCOC(=O)CCCCCCCN(CCCCCCCC(=O)OCCCC#CCCCC)CC(=O)OCCN1CCN(CCOC(=O)CN(CCCCCCCC(=O)OCCCC#CCCCC)CCCCCCCC(=O)OCCCC#CCCCC)CC1
Comparing E1-1 (L-1), E17-1 (L-19) and E6-1 (L-6)
  transfection efficiency (comparison in words): higher

## CCCCCCCCCCC(O)CN(CC(=O)NCCOCCN1CCN(CCOCCNC(=O)CN(CC(O)CCCCCCCCCC)CC(O)CCCCCCCCCC)CC1)CC(O)CCCCCCCCCC (stereo not drawn)
  transfection effects between two molar ratios: comparable between two different molar ratios, or slightly better for the molar ratio of 35:16:46.5:2.5

## CCCCCCCCCCCCOC(=O)CCN(CCC(=O)OCCCCCCCCCCCC)CC(=O)OCCOCCN1CCN(CCOCCOC(=O)CN(CCC(=O)OCCCCCCCCCCCC)CCC(=O)OCCCCCCCCCCCC)CC1
  transfection effects between two molar ratios: comparable between two different molar ratios, or slightly better for the molar ratio of 35:16:46.5:2.5
